Article PMC6928641
No constants are given. Whether binding was seen depends on the method and setting. For some of these results: In cells and extracts the contact can be indirect. Some binding calls cover weakened binding; strength is not graded here.

By UniProt entry, the sequences of proteins in these tests, tags left out. Residues count along the entry.
UniProt P38398, residues 1650-1863: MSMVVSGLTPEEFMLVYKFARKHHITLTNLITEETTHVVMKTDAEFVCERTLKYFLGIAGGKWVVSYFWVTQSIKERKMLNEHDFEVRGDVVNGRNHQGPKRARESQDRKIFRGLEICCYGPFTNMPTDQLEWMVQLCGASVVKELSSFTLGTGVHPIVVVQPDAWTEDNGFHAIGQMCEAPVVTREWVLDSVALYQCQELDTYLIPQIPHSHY
UniProt P85299: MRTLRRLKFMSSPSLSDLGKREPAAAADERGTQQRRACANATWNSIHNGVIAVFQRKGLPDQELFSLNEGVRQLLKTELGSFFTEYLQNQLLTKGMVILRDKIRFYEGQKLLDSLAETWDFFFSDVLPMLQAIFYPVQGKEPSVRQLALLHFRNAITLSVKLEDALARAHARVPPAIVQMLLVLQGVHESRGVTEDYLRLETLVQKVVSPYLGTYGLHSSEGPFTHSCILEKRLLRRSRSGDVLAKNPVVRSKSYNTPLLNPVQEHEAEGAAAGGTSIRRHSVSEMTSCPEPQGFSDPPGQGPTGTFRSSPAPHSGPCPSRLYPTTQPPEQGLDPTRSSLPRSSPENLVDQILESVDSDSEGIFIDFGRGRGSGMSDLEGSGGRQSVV
UniProt Q9BPZ7: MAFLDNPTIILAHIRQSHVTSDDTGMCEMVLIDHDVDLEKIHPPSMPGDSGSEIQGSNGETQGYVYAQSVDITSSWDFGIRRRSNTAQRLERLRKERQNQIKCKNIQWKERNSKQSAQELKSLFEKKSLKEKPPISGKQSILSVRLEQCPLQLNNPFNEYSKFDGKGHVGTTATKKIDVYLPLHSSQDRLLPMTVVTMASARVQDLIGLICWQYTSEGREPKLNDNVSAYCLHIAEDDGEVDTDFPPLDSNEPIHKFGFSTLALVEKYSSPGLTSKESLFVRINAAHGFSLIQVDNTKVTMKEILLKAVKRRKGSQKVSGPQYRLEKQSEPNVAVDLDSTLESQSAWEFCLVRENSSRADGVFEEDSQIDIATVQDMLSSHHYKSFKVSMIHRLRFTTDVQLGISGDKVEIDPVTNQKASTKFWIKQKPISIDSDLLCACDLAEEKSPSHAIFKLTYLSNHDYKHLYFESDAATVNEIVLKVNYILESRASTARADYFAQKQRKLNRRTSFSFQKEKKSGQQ
UniProt Q6R327: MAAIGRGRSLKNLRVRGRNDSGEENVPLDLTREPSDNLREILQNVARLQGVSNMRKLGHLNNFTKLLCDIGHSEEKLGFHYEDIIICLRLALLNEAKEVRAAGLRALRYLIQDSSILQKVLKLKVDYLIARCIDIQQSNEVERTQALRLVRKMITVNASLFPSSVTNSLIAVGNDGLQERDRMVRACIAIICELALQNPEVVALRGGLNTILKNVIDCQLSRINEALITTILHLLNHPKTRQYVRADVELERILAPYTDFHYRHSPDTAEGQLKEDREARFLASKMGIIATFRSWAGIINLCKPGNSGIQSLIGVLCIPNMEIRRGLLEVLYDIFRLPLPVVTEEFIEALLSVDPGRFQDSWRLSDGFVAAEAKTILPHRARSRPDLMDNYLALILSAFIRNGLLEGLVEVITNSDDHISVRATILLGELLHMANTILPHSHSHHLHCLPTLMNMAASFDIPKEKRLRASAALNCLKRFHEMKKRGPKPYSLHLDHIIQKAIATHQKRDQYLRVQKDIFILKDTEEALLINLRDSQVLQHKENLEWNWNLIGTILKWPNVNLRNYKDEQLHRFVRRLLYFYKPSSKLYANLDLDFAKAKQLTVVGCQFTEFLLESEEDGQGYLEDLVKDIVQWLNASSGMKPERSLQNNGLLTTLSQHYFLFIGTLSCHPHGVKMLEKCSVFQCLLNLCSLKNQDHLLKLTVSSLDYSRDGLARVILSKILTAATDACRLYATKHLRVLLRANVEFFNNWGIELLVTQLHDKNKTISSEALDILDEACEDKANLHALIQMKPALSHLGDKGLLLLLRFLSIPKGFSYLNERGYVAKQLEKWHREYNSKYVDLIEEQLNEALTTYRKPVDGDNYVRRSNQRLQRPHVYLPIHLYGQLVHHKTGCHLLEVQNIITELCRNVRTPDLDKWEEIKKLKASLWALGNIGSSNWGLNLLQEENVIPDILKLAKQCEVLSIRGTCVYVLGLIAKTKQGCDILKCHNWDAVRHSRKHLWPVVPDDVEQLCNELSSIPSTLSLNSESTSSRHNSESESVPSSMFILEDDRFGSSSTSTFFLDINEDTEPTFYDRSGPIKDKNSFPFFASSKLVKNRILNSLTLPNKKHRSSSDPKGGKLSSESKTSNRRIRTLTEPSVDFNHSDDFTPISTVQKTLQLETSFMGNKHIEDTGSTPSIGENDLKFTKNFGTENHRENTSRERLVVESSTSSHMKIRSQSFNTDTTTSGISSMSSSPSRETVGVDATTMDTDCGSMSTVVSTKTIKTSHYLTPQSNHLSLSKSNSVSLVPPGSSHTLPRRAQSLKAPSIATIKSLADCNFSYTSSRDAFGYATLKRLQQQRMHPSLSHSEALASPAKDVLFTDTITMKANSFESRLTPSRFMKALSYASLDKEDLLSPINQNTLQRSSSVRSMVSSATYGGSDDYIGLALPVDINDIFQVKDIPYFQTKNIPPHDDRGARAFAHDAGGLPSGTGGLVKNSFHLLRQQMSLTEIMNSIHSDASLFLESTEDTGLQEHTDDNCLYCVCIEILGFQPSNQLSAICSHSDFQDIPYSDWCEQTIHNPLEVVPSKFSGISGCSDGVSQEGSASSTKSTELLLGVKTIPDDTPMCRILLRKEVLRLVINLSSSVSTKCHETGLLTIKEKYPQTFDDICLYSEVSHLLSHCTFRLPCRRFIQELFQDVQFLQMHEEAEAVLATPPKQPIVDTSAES

How the values were obtained:
[1] = molecular target: BRCA1 tandem BRCT domain (tBRCT) wild type, GAL4 DNA binding domain fusion (human) (UniProt P38398); experiment: two-hybrid; ProQuest Two-Hybrid system, MaV203 yeast; GAL4-DBD BRCA1 tBRCT (pDEST32) with GAL4-AD PRR5, SIN1 or RICTOR (pDEST22); HIS3 selection (-Leu, -Trp, -His), ten-fold serial dilutions, 3AT up to 100 mM
[2] = molecular target: Myc-tagged PRR5 (UniProt P85299); experiment: co-IP; TAP-tagged BRCA1 tBRCT and Myc-tagged RICTOR, PRR5 or SIN1 co-transfected into 293FT cells; immunoprecipitation with α-MYC antibody, CBP blot
[3] = molecular target: Myc-tagged SIN1 (UniProt Q9BPZ7); experiment: as above
[4] = molecular target: Myc-tagged RICTOR (UniProt Q6R327); experiment: as above

Row | binding [1] | binding [2] | binding [3] | binding [4] | Substance
1 | binds |  |  |  | PRR5 (Proline-rich protein 5), GAL4 activation domain fusion (from UniProt P85299 1-388)
2 |  | binds | binds | binds | TAP-tagged BRCA1 tBRCT domain (from UniProt P38398 1650-1863) (domain or fragment)
